Data source: PubChem BioAssay AID1259405 (NCATS, 2018)
This is a random part of about 50,000 deposited reagents. About 4,000 of all reagents (8%) count as active. 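Mouse siRNA library applied to hamster cells; one well for each siRNA.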 Entries without a mark were called inactive. The numbers tell different reagents against one gene apart.

- Screen: 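Knock-downs that lift recombinant protein yield in hamster ovary cells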 (primary screen)
- Cell system: Chinese hamster CHO-K1 ovary cells with stable secreted eGFP expression
- Knock-down reagent: single siRNA against mouse genes, 0.8 pmol siRNA per well (2 µl of 400 nM stock)
- Timing: 3 days
- Measured: 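Per-well intracellular GFP measured by laser scanning cytometry, plus viability from ATP luminescence, each relative to plate median of non-targeting control wells, in %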
- Direction: GFP, % of control: higher = more GFP per well, higher productivity; viability (ATP), % of control: higher = more viable cells (more ATP)
- Rule for the call: 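Called active when intracellular GFP, relative to negative control, is at or above 120%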

| gene | siRNA no. | GFP, % of control | viability (ATP), % of control |
| --- | --- | --- | --- |
| Or5an11 (olfactory receptor family 5 subfamily AN member 11) | 1 | 47 | 81.5 |
| Or5an11 (olfactory receptor family 5 subfamily AN member 11) | 2 | 55 | 65.9 |
| Or5an11 (olfactory receptor family 5 subfamily AN member 11) | 3 | 34 | 44.7 |
| Tmco5b (transmembrane and coiled-coil domains 5B) | 1 | 85.4 | 98.6 |
| Tmco5b (transmembrane and coiled-coil domains 5B) | 2 | 81.8 | 69.8 |
| Tmco5b (transmembrane and coiled-coil domains 5B) | 3 | 119 | 77.8 |
| Platr26 (pluripotency associated transcript 26) | 1 | 43.3 | 91.4 |
| Platr26 (pluripotency associated transcript 26) | 2 | 40.2 | 65.6 |
| Platr26 (pluripotency associated transcript 26) | 3 | 104 | 64.7 |
| Map3k7 (mitogen-activated protein kinase kinase kinase 7) | 1 | 92.2 | 99.3 |
| Or2y15 (olfactory receptor family 2 subfamily Y member 15) | 1 | 53.3 | 43.7 |
| Or2y15 (olfactory receptor family 2 subfamily Y member 15) | 2 | 114 | 19.7 |
| Or2y15 (olfactory receptor family 2 subfamily Y member 15) | 3 | 86.7 | 57.8 |
| Ott (ovary testis transcribed) | 1 | 42.4 | 48.1 |
| Ott (ovary testis transcribed) | 2 | 76.1 | 85.4 |
| Ott (ovary testis transcribed) | 3 | 75.6 | 19.6 |
| Acrbp (proacrosin binding protein) | 1 | 60.9 | 62.4 |
| Acrbp (proacrosin binding protein) | 2 | 36.2 | 55.3 |
| Acrbp (proacrosin binding protein) | 3 | 72.4 | 89.7 |
| Or4k15c (olfactory receptor family 4 subfamily K member 15C) | 1 | 157 (active) | 107 |
| Or4k15c (olfactory receptor family 4 subfamily K member 15C) | 2 | 72.9 | 65 |
| Or4k15c (olfactory receptor family 4 subfamily K member 15C) | 3 | 94 | 144 |
| Tescl (tescalcin-like) | 1 | 79.6 | 34.4 |
| Tescl (tescalcin-like) | 2 | 61 | 92 |
| Tescl (tescalcin-like) | 3 | 86.6 | 74.5 |
| Cd47 | 1 | 69 | 78.1 |
| Cd47 | 2 | 61.6 | 69.2 |
| Cd47 | 3 | 81.7 | 65.4 |
| Irx4 (Iroquois homeobox 4) | 1 | 74.2 | 90.3 |
| Irx4 (Iroquois homeobox 4) | 2 | 54.5 | 58.6 |
| Irx4 (Iroquois homeobox 4) | 3 | 94.7 | 106 |

The list goes on; the last 7 above are carried over.
| gene | siRNA no. | GFP, % of control | viability (ATP), % of control |
| --- | --- | --- | --- |
| Tescl (tescalcin-like) | 3 | 86.6 | 74.5 |
| Cd47 | 1 | 69 | 78.1 |
| Cd47 | 2 | 61.6 | 69.2 |
| Cd47 | 3 | 81.7 | 65.4 |
| Irx4 (Iroquois homeobox 4) | 1 | 74.2 | 90.3 |
| Irx4 (Iroquois homeobox 4) | 2 | 54.5 | 58.6 |
| Irx4 (Iroquois homeobox 4) | 3 | 94.7 | 106 |
| Pou5f1 (POU domain, class 5, transcription factor 1) | 1 | 80.7 | 73.4 |
| Pou5f1 (POU domain, class 5, transcription factor 1) | 2 | 51 | 58.5 |
| Pou5f1 (POU domain, class 5, transcription factor 1) | 3 | 102 | 85.9 |
| Zfp697 (zinc finger protein 697) | 1 | 61.5 | 95.8 |
| Zfp697 (zinc finger protein 697) | 2 | 104 | 88.1 |
| B230325K18Rik (RIKEN cDNA B230325K18 gene) | 1 | 63.5 | 50.8 |
| B230325K18Rik (RIKEN cDNA B230325K18 gene) | 2 | 91.5 | 83.4 |
| B230325K18Rik (RIKEN cDNA B230325K18 gene) | 3 | 91.4 | 90 |
| Sufu (SUFU negative regulator of hedgehog signaling) | 1 | 105 | 59 |
| Sufu (SUFU negative regulator of hedgehog signaling) | 2 | 78.3 | 79.8 |
| Phb2 (prohibitin 2) | 1 | 32.3 | 26.9 |
| Phb2 (prohibitin 2) | 2 | 60.4 | 60 |
| Phb2 (prohibitin 2) | 3 | 80.6 | 71.6 |
| Cd300c2 (CD300C molecule 2) | 1 | 136 (active) | 86.2 |
| Cd300c2 (CD300C molecule 2) | 2 | 74.3 | 69 |
| Cd300c2 (CD300C molecule 2) | 3 | 146 (active) | 86 |
| Ago2 (argonaute RISC catalytic subunit 2) | 1 | 99 | 122 |
| Ago2 (argonaute RISC catalytic subunit 2) | 2 | 64.9 | 70.1 |
| Ago2 (argonaute RISC catalytic subunit 2) | 3 | 73.5 | 79.4 |
| Tm7sf2 (transmembrane 7 superfamily member 2) | 1 | 76 | 81.7 |
| Tm7sf2 (transmembrane 7 superfamily member 2) | 2 | 58.4 | 62.4 |
| Tm7sf2 (transmembrane 7 superfamily member 2) | 3 | 69.2 | 85 |
| Tfap2a (transcription factor AP-2, alpha) | 1 | 81.4 | 78.2 |
| Tfap2a (transcription factor AP-2, alpha) | 2 | 79.4 | 62.8 |
| Tfap2a (transcription factor AP-2, alpha) | 3 | 70.1 | 64.7 |
| Rubcnl | 1 | 52.5 | 84.4 |
| Rubcnl | 2 | 95.7 | 87.5 |
| Rubcnl | 3 | 106 | 130 |
| Sst (somatostatin) | 1 | 77.2 | 88 |
| Sst (somatostatin) | 2 | 57.7 | 49 |
| Sst (somatostatin) | 3 | 66.7 | 75.4 |
| Gtse1 (G two S phase expressed protein 1) | 1 | 92.8 | 93.7 |
| Gtse1 (G two S phase expressed protein 1) | 2 | 81.6 | 77.7 |
| Gtse1 (G two S phase expressed protein 1) | 3 | 54.3 | 54 |
| Slc2a4 | 1 | 101 | 106 |
| Slc2a4 | 2 | 78.8 | 87.6 |
| Slc2a4 | 3 | 113 | 110 |
| Zscan29 (zinc finger SCAN domains 29) | 1 | 68.4 | 69.2 |
| Zscan29 (zinc finger SCAN domains 29) | 2 | 93.6 | 49.3 |
| Zscan29 (zinc finger SCAN domains 29) | 3 | 94 | 105 |
| Hbq1a (hemoglobin, theta 1A) | 1 | 51.3 | 51.5 |
| Hbq1a (hemoglobin, theta 1A) | 2 | 60.2 | 60 |
| Hbq1a (hemoglobin, theta 1A) | 3 | 84.7 | 83.3 |
| Spdye4b (speedy/RINGO cell cycle regulator family, member E4B) | 1 | 60.1 | 62.7 |
| Spdye4b (speedy/RINGO cell cycle regulator family, member E4B) | 2 | 110 | 90.6 |
| Spdye4b (speedy/RINGO cell cycle regulator family, member E4B) | 3 | 98.8 | 112 |
| Gm4827 (predicted gene 4827) | 1 | 87.4 | 53.5 |
| Gm4827 (predicted gene 4827) | 2 | 69.8 | 70.8 |
| Gm4827 (predicted gene 4827) | 3 | 44.4 | 92.6 |
| Ppp1r3c (protein phosphatase 1, regulatory subunit 3C) | 1 | 120 (active) | 122 |
| Ppp1r3c (protein phosphatase 1, regulatory subunit 3C) | 2 | 106 | 78.1 |
| Ppp1r3c (protein phosphatase 1, regulatory subunit 3C) | 3 | 85 | 82.5 |
| Med9 (mediator complex subunit 9) | 1 | 66.1 | 73.7 |
| Med9 (mediator complex subunit 9) | 2 | 94.2 | 103 |
| Med9 (mediator complex subunit 9) | 3 | 95.2 | 114 |
